From paper PMC9950139
These are yes or no findings as the source states them, for the method shown. Binding seen in cells or lysates may run through a third protein. Some binding calls cover weakened binding; strength is not graded here.

Chains of the proteins cited; added tags and fusions are not shown.
UniProt Q5MJ70: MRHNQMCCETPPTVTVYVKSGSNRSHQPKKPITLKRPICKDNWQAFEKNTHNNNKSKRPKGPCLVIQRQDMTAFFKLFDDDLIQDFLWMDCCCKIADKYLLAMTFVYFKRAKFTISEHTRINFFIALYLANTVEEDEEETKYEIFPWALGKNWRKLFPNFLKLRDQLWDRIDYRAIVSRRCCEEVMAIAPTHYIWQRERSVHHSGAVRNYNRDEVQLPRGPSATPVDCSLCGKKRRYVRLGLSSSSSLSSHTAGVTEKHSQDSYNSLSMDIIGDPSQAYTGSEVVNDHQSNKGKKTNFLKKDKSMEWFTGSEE
UniProt Q5IBH7: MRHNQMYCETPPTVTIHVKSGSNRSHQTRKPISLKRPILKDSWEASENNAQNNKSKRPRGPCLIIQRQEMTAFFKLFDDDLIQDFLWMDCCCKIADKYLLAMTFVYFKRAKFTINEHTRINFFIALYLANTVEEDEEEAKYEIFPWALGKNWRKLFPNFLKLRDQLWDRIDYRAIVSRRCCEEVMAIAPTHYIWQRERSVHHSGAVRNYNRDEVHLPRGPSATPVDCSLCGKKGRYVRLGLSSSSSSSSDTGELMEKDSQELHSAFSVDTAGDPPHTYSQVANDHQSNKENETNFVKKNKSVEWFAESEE
UniProt P46934: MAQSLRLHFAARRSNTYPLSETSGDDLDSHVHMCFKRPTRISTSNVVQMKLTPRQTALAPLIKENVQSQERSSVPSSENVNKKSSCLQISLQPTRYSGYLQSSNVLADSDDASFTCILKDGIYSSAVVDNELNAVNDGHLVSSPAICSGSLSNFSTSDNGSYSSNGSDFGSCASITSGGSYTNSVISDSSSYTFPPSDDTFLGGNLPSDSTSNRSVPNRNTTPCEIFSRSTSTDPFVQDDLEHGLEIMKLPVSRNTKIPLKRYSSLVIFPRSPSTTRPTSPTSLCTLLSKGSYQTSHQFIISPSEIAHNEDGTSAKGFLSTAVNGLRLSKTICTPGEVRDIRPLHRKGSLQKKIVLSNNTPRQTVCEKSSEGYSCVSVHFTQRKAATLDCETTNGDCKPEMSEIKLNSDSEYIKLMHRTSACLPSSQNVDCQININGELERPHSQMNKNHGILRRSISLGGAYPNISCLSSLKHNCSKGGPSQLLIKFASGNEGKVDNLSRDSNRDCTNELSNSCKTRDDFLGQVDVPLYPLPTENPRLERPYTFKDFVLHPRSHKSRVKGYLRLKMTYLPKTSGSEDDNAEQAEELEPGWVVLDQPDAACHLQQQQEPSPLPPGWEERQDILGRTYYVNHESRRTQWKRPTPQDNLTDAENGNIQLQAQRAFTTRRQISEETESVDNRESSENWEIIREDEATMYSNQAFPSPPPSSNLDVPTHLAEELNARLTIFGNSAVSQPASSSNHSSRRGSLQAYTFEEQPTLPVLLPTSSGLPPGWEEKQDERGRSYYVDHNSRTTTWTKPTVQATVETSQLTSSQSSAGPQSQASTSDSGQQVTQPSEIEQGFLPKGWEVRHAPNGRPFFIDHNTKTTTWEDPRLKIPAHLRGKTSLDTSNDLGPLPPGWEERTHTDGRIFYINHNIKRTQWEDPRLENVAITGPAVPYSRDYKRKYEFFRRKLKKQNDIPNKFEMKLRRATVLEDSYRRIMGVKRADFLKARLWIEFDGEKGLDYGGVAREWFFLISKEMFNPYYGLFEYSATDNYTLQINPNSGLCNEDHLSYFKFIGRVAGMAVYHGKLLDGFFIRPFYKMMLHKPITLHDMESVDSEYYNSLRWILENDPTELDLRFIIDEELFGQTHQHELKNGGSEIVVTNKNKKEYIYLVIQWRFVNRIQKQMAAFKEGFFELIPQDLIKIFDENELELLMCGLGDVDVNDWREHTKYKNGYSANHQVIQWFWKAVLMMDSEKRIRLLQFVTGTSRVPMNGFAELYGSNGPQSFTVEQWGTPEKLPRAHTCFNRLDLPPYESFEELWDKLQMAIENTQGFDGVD
UniProt P23804: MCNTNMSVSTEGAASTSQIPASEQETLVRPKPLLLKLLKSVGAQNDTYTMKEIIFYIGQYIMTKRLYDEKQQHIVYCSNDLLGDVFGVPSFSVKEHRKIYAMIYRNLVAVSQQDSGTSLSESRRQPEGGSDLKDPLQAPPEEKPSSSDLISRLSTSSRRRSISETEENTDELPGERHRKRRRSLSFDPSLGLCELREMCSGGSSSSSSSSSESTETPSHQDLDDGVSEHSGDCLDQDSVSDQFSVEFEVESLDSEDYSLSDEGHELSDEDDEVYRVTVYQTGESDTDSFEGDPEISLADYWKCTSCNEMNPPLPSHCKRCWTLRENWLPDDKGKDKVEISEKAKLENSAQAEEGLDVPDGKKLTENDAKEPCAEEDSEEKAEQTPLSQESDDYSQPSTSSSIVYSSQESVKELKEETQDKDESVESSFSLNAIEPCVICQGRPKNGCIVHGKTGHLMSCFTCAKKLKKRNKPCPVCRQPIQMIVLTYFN
UniProt Q00987: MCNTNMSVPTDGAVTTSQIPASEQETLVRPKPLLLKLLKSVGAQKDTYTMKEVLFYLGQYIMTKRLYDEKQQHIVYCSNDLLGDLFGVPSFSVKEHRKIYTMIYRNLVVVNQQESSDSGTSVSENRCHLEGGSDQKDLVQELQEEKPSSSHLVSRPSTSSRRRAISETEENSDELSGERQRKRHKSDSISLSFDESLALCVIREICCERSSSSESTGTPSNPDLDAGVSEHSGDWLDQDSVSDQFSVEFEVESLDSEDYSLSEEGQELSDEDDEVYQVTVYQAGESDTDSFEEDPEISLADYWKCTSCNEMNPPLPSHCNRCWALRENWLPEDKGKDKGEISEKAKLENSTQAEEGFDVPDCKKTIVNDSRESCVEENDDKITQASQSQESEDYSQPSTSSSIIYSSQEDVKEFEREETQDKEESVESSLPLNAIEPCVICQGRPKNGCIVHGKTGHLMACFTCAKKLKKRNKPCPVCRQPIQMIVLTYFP

Legend:
[1] = target: SPY1-Flag (Speedy/RINGO cell cycle regulator family member A with Flag-tag) (UniProt Q5MJ70); test: co-IP; hSOD1^G93A and WT cells (NSC34-derived) co-transfected with SPY1-Flag and an HA-tagged partner for 24 h; RIPA lysate; immunoprecipitated with anti-Flag or anti-HA on protein A + G magnetic beads at 4 °C; immunoblotted with anti-HA or anti-Flag
[2] = target: SPY1 (endogenous) (mouse (endogenous in NSC34)) (UniProt Q5IBH7); test: co-IP; endogenous proteins in hSOD1^G93A and WT cells (NSC34-derived); RIPA lysate; protein A + G magnetic beads at 4 °C

Row | Substance | binding [1] | binding [2]
1 | NEDD4-HA (from UniProt P46934 1-1319) | binds | –
2 | MDM2 (endogenous) (from UniProt P23804 1-489) | – | binds
3 | MDM2-HA (from UniProt Q00987 1-491) | binds | –
